PubChem BioAssay AID743454, Peter MacCallum Cancer Centre – 2014
Here is an unselected part of about 18,000 reagents. Of all reagents, 450 (2.5%) got an active call. 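Single biological run; no consistent viability z cut-off exists, so the class columns, not z-scores, define the calls.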

Aim: 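Search for knock-downs that restore vorinostat killing in resistant colon cancer cells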 (primary screen)
Cell system: human HCT116-VR colon cancer cells, selected for vorinostat resistance
Reagents: siRNA pool against human genes, 40 nM siRNA pool
Time to read-out: vorinostat for 24 h, read-out about 72 h after transfection
Treatment: vorinostat at 2.5 µM final
Measured: 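Cell viability by CellTiter-Fluor and caspase 3/7 activity by luminescence, each scaled to mock wells per plate, duplicates averaged, then robust z-scored over all plates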
Scale: viability robust z-score: higher = more viable cells than screen typical; caspase robust z-score: higher = more caspase 3/7 activity than screen typical
Call rule: 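a knock-down is a hit when classed RV1 or RV2 for lowered viability, or CA1 or CA2 for caspase activation; those lethal without drug were dropped; hits were retested singly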

{"target gene": "KRT19", "viability hit class": "no change", "caspase hit class": "no change", "viability robust z-score": 0.61, "caspase robust z-score": -0.42, "Outcome": "inactive"}
{"target gene": "LYG2", "viability hit class": "no change", "caspase hit class": "no change", "viability robust z-score": 0.49, "caspase robust z-score": 0, "Outcome": "inactive"}
{"target gene": "MADD", "viability hit class": "no change", "caspase hit class": "no change", "viability robust z-score": 1.19, "caspase robust z-score": 0.68, "Outcome": "inactive"}
{"target gene": "PBLD", "viability hit class": "no change", "caspase hit class": "no change", "viability robust z-score": -1.94, "caspase robust z-score": -0.82, "Outcome": "inactive"}
{"target gene": "WDR55", "viability hit class": "no change", "caspase hit class": "no change", "viability robust z-score": -1.17, "caspase robust z-score": -0.27, "Outcome": "inactive"}
{"target gene": "UNC13C", "viability hit class": "no change", "caspase hit class": "no change", "viability robust z-score": 0.46, "caspase robust z-score": -0.33, "Outcome": "inactive"}
{"target gene": "CNTFR", "viability hit class": "no change", "caspase hit class": "no change", "viability robust z-score": 0.14, "caspase robust z-score": 1.8, "Outcome": "inactive"}
{"target gene": "KIF5A", "viability hit class": "no change", "caspase hit class": "no change", "viability robust z-score": 1.4, "caspase robust z-score": 0.16, "Outcome": "inactive"}
{"target gene": "LINC00452", "viability hit class": "no change", "caspase hit class": "no change", "viability robust z-score": -0.41, "caspase robust z-score": -0.27, "Outcome": "inactive"}
{"target gene": "CCDC43", "viability hit class": "no change", "caspase hit class": "no change", "viability robust z-score": -0.18, "caspase robust z-score": 0.72, "Outcome": "inactive"}
{"target gene": "YY2", "viability hit class": "no change", "caspase hit class": "no change", "viability robust z-score": 1.22, "caspase robust z-score": -0.52, "Outcome": "inactive"}
{"target gene": "ADGRG2", "viability hit class": "no change", "caspase hit class": "no change", "viability robust z-score": -0.92, "caspase robust z-score": 0.53, "Outcome": "inactive"}

Reformatted: 2 of the entries above
{"target gene":"LYG2","viability hit class":"no change","caspase hit class":"no change","viability robust z-score":0.49,"caspase robust z-score":0,"Outcome":"inactive"}
{"target gene":"MADD","viability hit class":"no change","caspase hit class":"no change","viability robust z-score":1.19,"caspase robust z-score":0.68,"Outcome":"inactive"}
